# Over roughly 33,000 sequences, “E-score (-0.5 to 0.5)” has its median near -8e-05; the highest 2% begin near 0.23. The list shows a part of the results.
# Molecular target: T1, Nrg2 (UniProt P38082)
# T1 sequence: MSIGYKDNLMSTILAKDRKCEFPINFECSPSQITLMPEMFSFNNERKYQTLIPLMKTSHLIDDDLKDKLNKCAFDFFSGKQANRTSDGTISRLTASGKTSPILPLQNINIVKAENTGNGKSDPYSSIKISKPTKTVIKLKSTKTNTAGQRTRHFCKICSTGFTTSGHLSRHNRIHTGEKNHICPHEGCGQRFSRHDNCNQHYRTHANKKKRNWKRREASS
# Test: PBM E-score (8-mer binding enrichment) (E-score (-0.5 to 0.5)); higher = stronger / more preferred TF binding
# Conditions: protein concentration: 100 nM; construct: GST-full length
# How it was run: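 Universal all-10-mer Agilent arrays, double-stranded by primer extension on fresh or once-stripped slides, were probed with about 100-200 nM GST-tagged yeast transcription factors made by PURExpress. Fluorescent anti-GST detected bound protein, and masliner normalised the scans. E-scores from the Universal PBM Analysis Suite were given to each ungapped eight-base word pooled with its reverse complement.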
row,Sequence,PBM E-score
1,GCTCATCA,0.0152
2,CCTACATC,-0.00525
3,GCCATCCC,-0.141
4,CGTGCTTA,-0.0688
5,ACTATTCT,-0.0551
6,AGTGCTAC,-0.0774
7,CAATAACA,0.0577
8,CAAGCTGC,0.076
9,CCAAGGAC,-0.0738
10,AGAATTGC,0.0643
11,TGAGCAAA,0.0883
12,TCGATCAA,0.00221
13,AGAACGCA,0.123
14,TCTGTCAA,0.0191
15,CTGTCTGA,-0.0393
16,ATGTCCGC,-0.0786
17,TCGGACAA,0.143
18,ATGGTCCA,-0.188
19,ATAAGGTG,0.16
20,GACATCGC,-0.0412
21,CGTGCATA,0.0409
22,TTAGATAA,-0.0515
23,CCCCATCC,0.0659
24,CACAAAAC,0.15
25,GAATTATC,-0.00415

row,Sequence,PBM E-score
1,AATCACGA,-0.206
2,CGGTTTCC,0.0521
3,CAACAGTC,-0.144
4,CTCGTATC,0.13
5,AGGTACAT,-0.16
6,CCCTAGGA,-0.162
7,CGAAATAC,0.159
8,GTTGCGTA,0.0751
9,AAGCTATA,-0.187
10,CAAGGGTC,0.376
11,GGCTCTAA,-0.0578
12,AGCAAATA,0.132
13,CAGCCATG,0.0503
14,CCCGCTTA,-0.0735
15,GCAGCTCC,-0.111
16,AGGTCAAG,0.0847
17,CGTAACGC,-0.0595
18,TACTAGAA,-0.0635
19,GGTTAGAA,-0.215
20,ATCTCGTA,-0.00102
21,GCTAGCTA,-0.0275
22,CGAGGTGC,0.178
23,AACGGAGT,0.12
24,ACGTAAGC,-0.145
25,ATGGAGAC,-0.0226

row,Sequence,PBM E-score
1,ATTATATC,0.106
2,CTCGAGTC,-0.049
3,CATGCACC,0.0198
4,GAGCCCAA,0.0286
5,GGTATGAA,0.131
6,AAGATTGC,0.126
7,CTGCGTGA,0.094
8,GGGTTGCA,0.021
9,CGGTATTC,0.0764
10,CCAGATAG,-0.01
11,AAAGTTAT,0.222
12,GTCCCACA,0.0612
13,AGTAACTC,0.0569
14,ATGTGCTA,-0.0357
15,AACTTGAG,-0.232
16,CGACCATC,-0.00804
17,CATCCACA,0.0702
18,GGACAGGA,-0.0722
19,ACGCTAAG,-0.295
20,ATCACGAT,-0.148
21,GTAGTACA,0.0751
22,GTGTGAAA,0.119
23,ATCGAAGG,0.00472
24,CCCACCGA,0.0724
25,GGCAGATA,-0.15

row,Sequence,PBM E-score
1,GCCGTCGC,-0.039
2,CTATCTGA,-0.0469
3,CAGGTCAC,-0.271
4,CGATTTCC,0.0794
5,TAATCTGA,0.0955
6,ACGCTTTA,-0.188
7,GGTTAAGA,0.0775
8,ACGCAGAG,0.0966
9,CAGGCGAC,-0.114
10,AATGCTAA,0.0106
11,GGCGATTA,-0.0236
12,AGCAAAGG,0.0268
13,AGTGTGGG,-0.0976
14,CTTTTATC,0.135
15,GAAACTCC,-0.182
16,CTTGTCCC,0.0971
17,ATTTCGAA,0.117
18,GGTGAAAC,-0.0289
19,AGTAAGAC,-0.014
20,ACATGACC,-0.0768
21,GTACGAGA,0.0861
22,TCAGATCA,0.0746
23,GCTTATAA,0.052
24,ACCGCAGA,-0.0429
25,TCTCGAGA,0.163

row,Sequence,PBM E-score
1,AGATCAAT,0.0887
2,AGGTCTAT,-0.00063
3,CGACGCTA,-0.0547
4,CTATATGC,0.0832
5,CCGATAAG,-0.0963
6,GATCTAGC,0.0211
7,AGCCGAGG,0.215
8,AATTTGAA,0.141
9,CTAGTATC,0.185
10,ACATGTTA,0.0181
11,TAACACCA,0.022
12,CATAAGCA,-0.103
13,AACATACT,0.0279
14,AGGTGTGC,-0.0759
15,ACATTATG,0.00928
16,AGCCTTAG,-0.206
17,GATTGAAA,0.0241
18,CCTCAGAG,-0.21
19,CCCGTGCA,-0.00345
20,TACGCGCA,0.18
21,AATACTCA,0.163
22,ACGACAGT,-0.145
23,GTCCCAGA,-0.19
24,AGTCTGGC,-0.36
25,CGAACATC,0.086

row,Sequence,PBM E-score
1,AGTGGAGA,0.0905
2,CCCAAAAG,-0.043
3,AAGGCTGG,-0.179
4,CTCACGAC,-0.175
5,ATAGGGGG,-0.364
6,ATAGTGGC,0.0613
7,ATCATACG,0.141
8,AAGGAACG,0.0193
9,ATACTGAA,0.00599
10,AACACCTG,-0.0343
11,AGCCGCCG,0.0509
12,GTTCTGTA,0.0845
13,CATACTGG,0.0286
14,ATACGAGC,0.0677
15,AGAACATA,0.164
16,ACTTCAGG,-0.0321
17,TTCCCAAA,0.0812
18,CAACGCCA,-0.0368
19,CATGCTGA,0.104
20,GCCCTATA,0.0607
21,CTTGACAC,-0.0866
22,ATCCGGCC,-0.00708
23,ACGTGCGC,-0.0374
24,TAAAAAGA,-0.0119
25,ACGACGAC,-0.128

row,Sequence,PBM E-score
1,CAGTGCGC,-0.224
2,ATGTGTAA,-0.102
3,GCTCGTCC,0.0551
4,GAACATCA,0.009
5,AGGCTATG,-0.264
6,CCAGGCGC,-0.0854
7,GAGTTAAC,-0.0596
8,CGTGATTA,0.102
9,AGTCAGAT,-0.0838
10,AACCAGCT,0.133
11,CTGGAACC,-0.0953
12,ACCCCAGG,-0.0209
13,CTTAACGC,-0.147
14,CGTTGACC,0.0512
15,CAGCTGGC,0.0512
16,CCAATGGA,0.0152
17,GAAGCATC,-0.0701
18,ACCAGGAC,-0.0139
19,ACAAGAAA,0.0532
20,AGAATGAG,-0.00914
21,AGGCGAGA,0.0131
22,CGTAGGAC,-0.22
23,CCTTTCTA,0.0384
24,GACACAAA,0.136
25,CTCGTGCA,-0.0635

row,Sequence,PBM E-score
1,CGGAATCC,-0.0755
2,AATCCATA,0.155
3,CGCGATAC,0.114
4,ACAACGGG,0.243
5,GCTTACTA,-0.0461
6,CCACGTCG,0.0281
7,AGAATCAC,-0.00078
8,ACTCACCG,-0.0214
9,CCAGGCTA,-0.171
10,CGACTAGA,-0.135
11,GTAGGACA,0.0388
12,CCGACGGA,0.0815
13,CATTTGAC,-0.105
14,ACGGCAAT,0.226
15,CTTGAGCA,-0.192
16,CAGGCTCG,-0.0589
17,CTAACTAC,-0.0974
18,GTCCCAAA,-0.0993
19,TCACGTGA,0.0123
20,GCGACTCA,0.0102
21,GAAAATTA,0.105
22,GGAACAAA,0.263
23,CTAGGACC,-0.243
24,AGTAGAGA,-0.0288
25,CCCGACAA,0.261

# Not a retest: entries from further up.
row,Sequence,PBM E-score
20,GCCCTATA,0.0607
21,CTTGACAC,-0.0866
22,ATCCGGCC,-0.00708
23,ACGTGCGC,-0.0374
24,TAAAAAGA,-0.0119
25,ACGACGAC,-0.128
1,CAGTGCGC,-0.224
2,ATGTGTAA,-0.102
3,GCTCGTCC,0.0551
4,GAACATCA,0.009
5,AGGCTATG,-0.264
6,CCAGGCGC,-0.0854
7,GAGTTAAC,-0.0596
8,CGTGATTA,0.102
9,AGTCAGAT,-0.0838
10,AACCAGCT,0.133
11,CTGGAACC,-0.0953
12,ACCCCAGG,-0.0209
13,CTTAACGC,-0.147
14,CGTTGACC,0.0512
15,CAGCTGGC,0.0512
16,CCAATGGA,0.0152
17,GAAGCATC,-0.0701
18,ACCAGGAC,-0.0139
19,ACAAGAAA,0.0532
20,AGAATGAG,-0.00914
21,AGGCGAGA,0.0131
22,CGTAGGAC,-0.22
23,CCTTTCTA,0.0384
24,GACACAAA,0.136
25,CTCGTGCA,-0.0635
1,CGGAATCC,-0.0755
2,AATCCATA,0.155
3,CGCGATAC,0.114
4,ACAACGGG,0.243
5,GCTTACTA,-0.0461
6,CCACGTCG,0.0281
7,AGAATCAC,-0.00078
8,ACTCACCG,-0.0214
9,CCAGGCTA,-0.171
10,CGACTAGA,-0.135
11,GTAGGACA,0.0388
12,CCGACGGA,0.0815
13,CATTTGAC,-0.105
14,ACGGCAAT,0.226
15,CTTGAGCA,-0.192
16,CAGGCTCG,-0.0589
17,CTAACTAC,-0.0974
18,GTCCCAAA,-0.0993
19,TCACGTGA,0.0123
20,GCGACTCA,0.0102
21,GAAAATTA,0.105
22,GGAACAAA,0.263
23,CTAGGACC,-0.243
24,AGTAGAGA,-0.0288

# (listing goes on)

row,Sequence,PBM E-score
1,CTCGGTAC,-0.25
2,TACCGGAA,0.0379
3,CCCGCGTA,0.0466
4,ACAATGGG,0.0335
5,GCGCTCAC,0.146
6,AGTATAAA,0.194
7,CGTCTGTA,-0.0917
8,ATGGGCAC,0.127
9,AGGATGAA,-0.0613
10,GAGCGGGC,-0.182
11,AAAGCTCA,-0.0299
12,AGACAATC,0.0613
13,AGTCCCGG,-0.212
14,CTTAACAA,0.107
15,GAAACCCA,0.158
16,ATCTGTTG,-0.0394
17,TGAGACCA,0.00854
18,CACGTTAA,0.0481
19,GCGCTATA,0.076
